No constants are given. Whether binding was seen depends on the method and setting. Some entries that bind do so weakly or less than the wild type.
Target: cynomolgus monkey CD47 (cynomolgus monkey)
Assay: flow cytometry, antibody dilution series on cynomolgus red blood cells

binding: binds
B1: anti-CD47 antibody 2.3D11 (antibody, V domains shown)
VH: QVQLQESGPGLVKPSGTLSLTCAVSGVSIRSINWWNWVRQPPGKGLEWIGEIYHSGSTNYNPSLKSRVTISVDKSKNQFSLKLNSVTAADTAVYYCARDGGIAVTDYYYYGLDVWGQGTTVTVSS
VL: EIVLTQSPATLSLSPGERATLSCRASESVSSNLAWYQQKPGQAPRLLIYGAFNRATGIPARFSGSGSGTDFTLTISSLEPEDFAVYYCQQRSDWFTFGGGTKVEIKR

Source: US20180201677A1 (ERASMUS UNIVERSITY MEDICAL CENTER, published 2018)
